# Data published in patent US10577317B2, “Crystal forms and production methods thereof” (Sunovion Pharmaceuticals Inc., priority 2017, dated 2020).
# Some entries share one result that the patent states for a list of compounds.
# Experiment: DVS water sorption isotherm, 25° C. scanned over 0 to 95% relative humidity (hygroscopicity)
# Format: physicochemical
# Source text: In various embodiments, the hygroscopicity of crystal forms of racemic amisulpride, enantiomeric amisulpride, and enantiomeric amisulpride solvates are characterized by dynamic vapor sorption (DVS). DVS is a gravimetric technique that measures how much of a solvent is absorbed by a sample by varying the vapor concentration surrounding the sample (e.g., relative humidity) and measuring the change in mass. In the present application, DVS is used to generate water sorption isotherms, which represent the equilibrium amount of vapor sorbed as a function of steady state relative vapor pressure at a constant temperature.
smiles,measurement,value
"CCN1CCC[C@H]1CNC(=O)c1cc(S(=O)(=O)CC)c(N)cc1OC [(S)-amisulpride Form A′, S-4-Amino-N-[(1-ethyl-2-pyrrolidinyl)methyl]-5-(ethylsulfonyl)-2-methoxybenzamide]",maximum mass change in water sorption isotherms,< 0.5%
"CCN1CCC[C@@H]1CNC(=O)c1cc(S(=O)(=O)CC)c(N)cc1OC [(R)-amisulpride Form A, R-4-Amino-N-[(1-ethyl-2-pyrrolidinyl)methyl]-5-(ethylsulfonyl)-2-methoxybenzamide]",maximum mass change in water sorption isotherms,< 0.5%
